Test results as given in PMC10042811.

Sequences of proteins named here, by UniProt entry; tags and fusion partners are left off.
UniProt O95425: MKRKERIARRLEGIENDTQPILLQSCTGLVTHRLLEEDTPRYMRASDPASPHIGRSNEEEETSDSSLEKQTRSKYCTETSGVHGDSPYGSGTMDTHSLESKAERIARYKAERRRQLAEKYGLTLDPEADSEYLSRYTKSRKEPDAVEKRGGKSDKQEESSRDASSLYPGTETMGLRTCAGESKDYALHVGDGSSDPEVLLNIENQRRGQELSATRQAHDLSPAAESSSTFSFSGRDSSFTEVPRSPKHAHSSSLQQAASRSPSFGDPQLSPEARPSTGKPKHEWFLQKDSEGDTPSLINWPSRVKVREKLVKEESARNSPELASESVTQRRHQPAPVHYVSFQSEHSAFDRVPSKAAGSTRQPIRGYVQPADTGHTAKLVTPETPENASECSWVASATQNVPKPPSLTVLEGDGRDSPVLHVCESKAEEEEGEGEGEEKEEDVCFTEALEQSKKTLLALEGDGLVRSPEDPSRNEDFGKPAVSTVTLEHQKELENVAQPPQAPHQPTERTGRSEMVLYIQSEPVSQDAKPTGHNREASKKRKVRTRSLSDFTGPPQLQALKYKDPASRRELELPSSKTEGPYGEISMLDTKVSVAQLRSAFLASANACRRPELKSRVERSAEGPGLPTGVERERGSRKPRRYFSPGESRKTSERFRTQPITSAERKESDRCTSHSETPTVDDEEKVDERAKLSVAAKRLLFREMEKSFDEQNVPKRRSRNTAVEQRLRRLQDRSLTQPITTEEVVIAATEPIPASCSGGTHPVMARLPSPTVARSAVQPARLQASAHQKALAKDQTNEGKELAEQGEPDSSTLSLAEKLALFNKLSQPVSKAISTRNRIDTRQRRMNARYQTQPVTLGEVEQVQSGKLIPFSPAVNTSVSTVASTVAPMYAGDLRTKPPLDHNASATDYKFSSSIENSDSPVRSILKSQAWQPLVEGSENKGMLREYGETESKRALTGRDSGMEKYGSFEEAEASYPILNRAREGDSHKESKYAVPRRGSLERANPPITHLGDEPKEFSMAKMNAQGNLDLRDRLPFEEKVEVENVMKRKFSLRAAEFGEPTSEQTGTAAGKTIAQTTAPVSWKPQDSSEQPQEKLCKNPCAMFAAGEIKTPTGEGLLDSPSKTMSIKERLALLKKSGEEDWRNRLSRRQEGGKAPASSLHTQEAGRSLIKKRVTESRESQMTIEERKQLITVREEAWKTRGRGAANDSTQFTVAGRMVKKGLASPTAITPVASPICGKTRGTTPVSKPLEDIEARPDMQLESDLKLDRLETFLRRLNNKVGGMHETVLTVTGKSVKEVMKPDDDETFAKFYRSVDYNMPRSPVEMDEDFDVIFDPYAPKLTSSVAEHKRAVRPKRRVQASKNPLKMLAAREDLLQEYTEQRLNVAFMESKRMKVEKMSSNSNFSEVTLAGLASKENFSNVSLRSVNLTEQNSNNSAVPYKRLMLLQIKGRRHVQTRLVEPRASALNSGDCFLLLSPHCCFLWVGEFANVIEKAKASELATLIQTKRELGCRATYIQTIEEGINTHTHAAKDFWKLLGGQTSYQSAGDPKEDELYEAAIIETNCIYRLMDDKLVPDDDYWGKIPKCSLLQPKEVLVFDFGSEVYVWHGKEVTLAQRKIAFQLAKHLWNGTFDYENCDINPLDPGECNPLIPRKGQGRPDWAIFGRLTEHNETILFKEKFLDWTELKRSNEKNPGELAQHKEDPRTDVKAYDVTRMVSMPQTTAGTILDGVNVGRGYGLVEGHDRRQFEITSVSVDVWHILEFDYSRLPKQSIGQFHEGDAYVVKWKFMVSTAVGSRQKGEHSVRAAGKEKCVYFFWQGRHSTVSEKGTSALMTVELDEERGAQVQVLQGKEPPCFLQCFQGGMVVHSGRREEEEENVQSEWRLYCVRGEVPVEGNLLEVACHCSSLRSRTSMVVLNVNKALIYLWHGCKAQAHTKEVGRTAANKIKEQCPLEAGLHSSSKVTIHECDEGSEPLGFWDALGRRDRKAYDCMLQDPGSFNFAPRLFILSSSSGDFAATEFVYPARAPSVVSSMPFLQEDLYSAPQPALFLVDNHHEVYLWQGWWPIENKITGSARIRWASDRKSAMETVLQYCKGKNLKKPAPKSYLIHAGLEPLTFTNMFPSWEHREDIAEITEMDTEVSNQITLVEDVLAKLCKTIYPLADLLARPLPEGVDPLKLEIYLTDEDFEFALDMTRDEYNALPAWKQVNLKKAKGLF
UniProt Q03164: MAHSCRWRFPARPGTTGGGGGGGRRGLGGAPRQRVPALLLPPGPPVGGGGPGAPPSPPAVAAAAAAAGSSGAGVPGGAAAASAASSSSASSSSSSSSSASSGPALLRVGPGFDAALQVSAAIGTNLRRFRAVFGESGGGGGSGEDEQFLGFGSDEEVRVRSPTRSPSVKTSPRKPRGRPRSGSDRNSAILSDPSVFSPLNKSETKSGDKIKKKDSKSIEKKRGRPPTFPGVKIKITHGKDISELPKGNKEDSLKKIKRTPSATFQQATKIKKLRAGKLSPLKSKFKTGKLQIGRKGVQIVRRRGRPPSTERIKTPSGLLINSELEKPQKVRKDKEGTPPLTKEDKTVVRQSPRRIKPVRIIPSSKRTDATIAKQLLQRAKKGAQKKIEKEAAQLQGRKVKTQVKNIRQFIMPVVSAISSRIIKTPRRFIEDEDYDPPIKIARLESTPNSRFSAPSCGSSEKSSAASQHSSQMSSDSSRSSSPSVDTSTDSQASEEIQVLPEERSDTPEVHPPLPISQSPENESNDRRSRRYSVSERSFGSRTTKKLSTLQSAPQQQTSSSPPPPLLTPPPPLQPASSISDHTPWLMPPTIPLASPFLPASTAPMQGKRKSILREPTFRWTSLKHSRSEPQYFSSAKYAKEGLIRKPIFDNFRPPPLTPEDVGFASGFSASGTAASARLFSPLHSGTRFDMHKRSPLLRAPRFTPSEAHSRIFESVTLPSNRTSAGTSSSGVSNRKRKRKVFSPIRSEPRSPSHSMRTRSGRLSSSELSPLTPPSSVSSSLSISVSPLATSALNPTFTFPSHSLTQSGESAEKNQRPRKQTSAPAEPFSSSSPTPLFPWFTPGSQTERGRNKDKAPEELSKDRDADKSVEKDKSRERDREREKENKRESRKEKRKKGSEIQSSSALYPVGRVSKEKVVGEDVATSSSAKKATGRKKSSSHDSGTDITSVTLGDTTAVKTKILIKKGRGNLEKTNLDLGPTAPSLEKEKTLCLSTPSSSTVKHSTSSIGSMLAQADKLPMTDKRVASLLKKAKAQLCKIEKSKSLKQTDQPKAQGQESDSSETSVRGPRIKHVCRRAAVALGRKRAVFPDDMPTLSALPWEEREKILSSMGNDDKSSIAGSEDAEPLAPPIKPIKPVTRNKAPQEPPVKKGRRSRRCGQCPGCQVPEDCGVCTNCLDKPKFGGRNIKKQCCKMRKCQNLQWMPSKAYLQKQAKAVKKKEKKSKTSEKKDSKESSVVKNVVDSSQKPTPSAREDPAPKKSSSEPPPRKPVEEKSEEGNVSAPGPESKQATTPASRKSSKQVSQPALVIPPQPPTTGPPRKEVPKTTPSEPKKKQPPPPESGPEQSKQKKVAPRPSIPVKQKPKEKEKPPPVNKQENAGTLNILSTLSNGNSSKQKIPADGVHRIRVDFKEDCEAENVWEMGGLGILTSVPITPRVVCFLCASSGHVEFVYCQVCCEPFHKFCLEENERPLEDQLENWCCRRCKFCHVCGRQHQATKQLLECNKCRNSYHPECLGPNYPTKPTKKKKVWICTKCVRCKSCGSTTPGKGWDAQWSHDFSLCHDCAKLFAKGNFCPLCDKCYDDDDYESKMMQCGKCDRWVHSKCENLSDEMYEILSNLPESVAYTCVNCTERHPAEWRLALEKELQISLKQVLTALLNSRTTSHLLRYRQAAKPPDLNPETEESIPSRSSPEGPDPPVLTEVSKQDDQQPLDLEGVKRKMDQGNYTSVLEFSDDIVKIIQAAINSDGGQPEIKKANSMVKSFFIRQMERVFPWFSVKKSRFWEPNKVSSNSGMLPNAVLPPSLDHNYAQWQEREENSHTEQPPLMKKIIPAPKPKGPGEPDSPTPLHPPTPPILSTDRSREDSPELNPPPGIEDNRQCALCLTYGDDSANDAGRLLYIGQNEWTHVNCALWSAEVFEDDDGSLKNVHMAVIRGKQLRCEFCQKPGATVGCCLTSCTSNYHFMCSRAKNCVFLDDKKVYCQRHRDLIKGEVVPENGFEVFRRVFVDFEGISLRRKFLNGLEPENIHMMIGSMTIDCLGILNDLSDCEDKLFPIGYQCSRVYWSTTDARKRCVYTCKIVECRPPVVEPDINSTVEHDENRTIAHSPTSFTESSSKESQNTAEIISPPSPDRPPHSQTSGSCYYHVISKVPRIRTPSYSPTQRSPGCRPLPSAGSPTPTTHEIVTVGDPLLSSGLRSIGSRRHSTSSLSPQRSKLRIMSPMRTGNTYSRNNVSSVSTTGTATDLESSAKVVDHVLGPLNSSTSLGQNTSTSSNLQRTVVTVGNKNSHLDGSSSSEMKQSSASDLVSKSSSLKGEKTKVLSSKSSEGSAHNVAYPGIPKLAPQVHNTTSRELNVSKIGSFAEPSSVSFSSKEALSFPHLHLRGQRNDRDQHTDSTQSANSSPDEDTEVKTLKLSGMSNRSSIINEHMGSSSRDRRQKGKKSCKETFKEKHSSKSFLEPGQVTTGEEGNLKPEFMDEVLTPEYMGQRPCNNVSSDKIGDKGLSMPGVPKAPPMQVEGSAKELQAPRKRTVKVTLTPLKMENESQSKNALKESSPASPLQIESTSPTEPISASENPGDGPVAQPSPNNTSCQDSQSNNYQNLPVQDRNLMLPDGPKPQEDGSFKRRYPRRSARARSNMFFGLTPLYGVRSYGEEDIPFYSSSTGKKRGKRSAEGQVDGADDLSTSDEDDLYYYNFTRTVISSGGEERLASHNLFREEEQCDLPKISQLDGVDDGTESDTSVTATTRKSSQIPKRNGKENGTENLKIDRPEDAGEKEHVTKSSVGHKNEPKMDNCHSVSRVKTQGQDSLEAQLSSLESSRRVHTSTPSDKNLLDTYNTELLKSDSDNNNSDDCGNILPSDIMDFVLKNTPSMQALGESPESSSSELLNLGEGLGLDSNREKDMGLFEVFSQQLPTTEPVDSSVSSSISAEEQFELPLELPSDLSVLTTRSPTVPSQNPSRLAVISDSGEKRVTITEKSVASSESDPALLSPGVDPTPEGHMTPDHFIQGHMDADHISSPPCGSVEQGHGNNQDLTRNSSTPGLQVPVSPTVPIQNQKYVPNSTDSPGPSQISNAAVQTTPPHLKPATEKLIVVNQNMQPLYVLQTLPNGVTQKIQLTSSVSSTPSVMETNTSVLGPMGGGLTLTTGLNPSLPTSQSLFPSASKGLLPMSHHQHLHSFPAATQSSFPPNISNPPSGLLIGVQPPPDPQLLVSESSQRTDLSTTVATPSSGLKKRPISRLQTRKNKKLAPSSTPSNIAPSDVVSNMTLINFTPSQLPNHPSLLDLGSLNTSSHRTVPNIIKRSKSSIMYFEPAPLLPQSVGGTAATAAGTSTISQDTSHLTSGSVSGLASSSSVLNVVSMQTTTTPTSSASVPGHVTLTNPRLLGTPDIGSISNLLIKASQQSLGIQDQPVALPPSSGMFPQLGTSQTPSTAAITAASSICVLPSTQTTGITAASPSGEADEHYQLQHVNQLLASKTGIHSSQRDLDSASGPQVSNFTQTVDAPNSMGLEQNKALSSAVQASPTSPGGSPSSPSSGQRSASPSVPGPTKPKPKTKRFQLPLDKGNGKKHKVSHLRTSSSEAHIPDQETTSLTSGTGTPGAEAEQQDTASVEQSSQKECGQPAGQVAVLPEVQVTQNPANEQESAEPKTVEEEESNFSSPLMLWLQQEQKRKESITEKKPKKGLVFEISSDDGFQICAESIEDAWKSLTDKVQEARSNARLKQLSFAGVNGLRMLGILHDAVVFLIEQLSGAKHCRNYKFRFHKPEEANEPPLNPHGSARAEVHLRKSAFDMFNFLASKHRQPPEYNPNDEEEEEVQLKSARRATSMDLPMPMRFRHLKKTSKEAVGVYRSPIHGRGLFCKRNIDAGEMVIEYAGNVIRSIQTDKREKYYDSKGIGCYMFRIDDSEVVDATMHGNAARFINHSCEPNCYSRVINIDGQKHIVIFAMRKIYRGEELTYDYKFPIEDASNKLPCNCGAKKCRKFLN

Target: endogenous SVIL of LFS astrocytes (human (endogenous in LFS iPSC-derived astrocytes)) (UniProt O95425)
Experiment: affinity purification with mass spectrometry; IP-MS of SVIL-associated proteins in LFS astrocytes

“endogenous MLL1 (lysine methyltransferase 2A) of LFS astrocytes (from UniProt Q03164 1-3969)” was tested, and the binding was “binds”.

No constants are given. Whether binding was seen depends on the method and setting. Binding seen in cells or lysates may run through a third protein. Here binding means that the protein was enriched with, or labelled near, the bait; the list need not be complete.
